No constants are given. Whether binding was seen depends on the method and setting. Binding seen in cells or lysates may run through a third protein. Some binding calls cover weakened binding; strength is not graded here.
Columns and labels:
Test in all cases: co-IP
[1] = biological target: B-Myb, endogenous (human (endogenous in MDA-MB-231)) (UniProt P10244)
[2] = biological target: T1, FOXM1, endogenous (human (endogenous in MDA-MB-231)) (UniProt Q08050)
T1 sequence: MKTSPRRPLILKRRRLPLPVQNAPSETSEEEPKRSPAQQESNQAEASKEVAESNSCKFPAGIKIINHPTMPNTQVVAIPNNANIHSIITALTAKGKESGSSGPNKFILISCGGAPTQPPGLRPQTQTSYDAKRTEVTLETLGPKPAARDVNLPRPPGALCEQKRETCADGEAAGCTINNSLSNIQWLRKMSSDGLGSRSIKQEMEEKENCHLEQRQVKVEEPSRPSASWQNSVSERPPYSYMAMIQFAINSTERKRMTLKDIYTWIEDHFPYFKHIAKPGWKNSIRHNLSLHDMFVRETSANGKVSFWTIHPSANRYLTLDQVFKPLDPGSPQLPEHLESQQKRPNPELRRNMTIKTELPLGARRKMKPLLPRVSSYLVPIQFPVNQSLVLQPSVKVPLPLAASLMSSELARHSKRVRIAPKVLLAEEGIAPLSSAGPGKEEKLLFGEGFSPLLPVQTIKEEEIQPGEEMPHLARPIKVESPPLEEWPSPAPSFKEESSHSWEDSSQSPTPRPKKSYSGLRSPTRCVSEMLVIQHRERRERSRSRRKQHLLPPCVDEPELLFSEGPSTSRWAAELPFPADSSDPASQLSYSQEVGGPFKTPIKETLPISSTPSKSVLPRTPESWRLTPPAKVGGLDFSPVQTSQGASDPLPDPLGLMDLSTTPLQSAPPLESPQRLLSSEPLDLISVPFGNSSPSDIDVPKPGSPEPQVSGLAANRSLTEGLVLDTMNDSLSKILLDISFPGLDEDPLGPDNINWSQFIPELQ

By UniProt entry, the sequences of proteins in these tests, tags left out. Residues count along the entry.
UniProt P10244: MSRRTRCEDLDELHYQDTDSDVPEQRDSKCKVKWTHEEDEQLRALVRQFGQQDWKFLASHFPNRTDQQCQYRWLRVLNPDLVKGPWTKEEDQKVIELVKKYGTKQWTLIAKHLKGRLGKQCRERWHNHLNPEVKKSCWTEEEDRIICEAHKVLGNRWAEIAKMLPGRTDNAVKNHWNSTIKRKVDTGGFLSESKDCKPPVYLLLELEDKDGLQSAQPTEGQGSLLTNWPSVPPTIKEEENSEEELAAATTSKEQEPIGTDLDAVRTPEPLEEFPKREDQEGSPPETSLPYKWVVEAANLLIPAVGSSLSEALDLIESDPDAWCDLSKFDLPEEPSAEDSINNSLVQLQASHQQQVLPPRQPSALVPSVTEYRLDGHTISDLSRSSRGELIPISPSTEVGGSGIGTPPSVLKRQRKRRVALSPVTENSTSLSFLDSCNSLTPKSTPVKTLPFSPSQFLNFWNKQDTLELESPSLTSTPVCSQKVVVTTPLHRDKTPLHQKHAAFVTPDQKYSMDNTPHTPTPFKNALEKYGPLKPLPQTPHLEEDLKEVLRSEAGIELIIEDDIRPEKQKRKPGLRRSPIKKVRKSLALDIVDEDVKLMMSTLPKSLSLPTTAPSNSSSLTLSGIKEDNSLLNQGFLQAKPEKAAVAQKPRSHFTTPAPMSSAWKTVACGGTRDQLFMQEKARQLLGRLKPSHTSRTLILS
UniProt Q5TKA1: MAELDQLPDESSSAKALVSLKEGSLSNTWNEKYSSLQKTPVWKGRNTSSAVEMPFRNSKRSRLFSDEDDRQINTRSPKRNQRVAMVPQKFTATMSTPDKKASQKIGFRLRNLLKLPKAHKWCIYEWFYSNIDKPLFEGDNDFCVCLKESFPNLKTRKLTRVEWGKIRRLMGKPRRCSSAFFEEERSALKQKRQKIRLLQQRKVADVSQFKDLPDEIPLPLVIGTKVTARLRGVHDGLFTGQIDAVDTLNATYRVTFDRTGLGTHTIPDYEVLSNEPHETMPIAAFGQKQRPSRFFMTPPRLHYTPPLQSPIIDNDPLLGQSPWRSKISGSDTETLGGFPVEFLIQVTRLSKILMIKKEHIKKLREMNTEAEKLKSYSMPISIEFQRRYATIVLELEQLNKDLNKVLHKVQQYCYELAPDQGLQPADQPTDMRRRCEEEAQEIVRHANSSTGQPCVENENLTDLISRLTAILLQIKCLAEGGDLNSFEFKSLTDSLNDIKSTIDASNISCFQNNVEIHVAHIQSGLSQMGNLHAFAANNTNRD
UniProt Q15648: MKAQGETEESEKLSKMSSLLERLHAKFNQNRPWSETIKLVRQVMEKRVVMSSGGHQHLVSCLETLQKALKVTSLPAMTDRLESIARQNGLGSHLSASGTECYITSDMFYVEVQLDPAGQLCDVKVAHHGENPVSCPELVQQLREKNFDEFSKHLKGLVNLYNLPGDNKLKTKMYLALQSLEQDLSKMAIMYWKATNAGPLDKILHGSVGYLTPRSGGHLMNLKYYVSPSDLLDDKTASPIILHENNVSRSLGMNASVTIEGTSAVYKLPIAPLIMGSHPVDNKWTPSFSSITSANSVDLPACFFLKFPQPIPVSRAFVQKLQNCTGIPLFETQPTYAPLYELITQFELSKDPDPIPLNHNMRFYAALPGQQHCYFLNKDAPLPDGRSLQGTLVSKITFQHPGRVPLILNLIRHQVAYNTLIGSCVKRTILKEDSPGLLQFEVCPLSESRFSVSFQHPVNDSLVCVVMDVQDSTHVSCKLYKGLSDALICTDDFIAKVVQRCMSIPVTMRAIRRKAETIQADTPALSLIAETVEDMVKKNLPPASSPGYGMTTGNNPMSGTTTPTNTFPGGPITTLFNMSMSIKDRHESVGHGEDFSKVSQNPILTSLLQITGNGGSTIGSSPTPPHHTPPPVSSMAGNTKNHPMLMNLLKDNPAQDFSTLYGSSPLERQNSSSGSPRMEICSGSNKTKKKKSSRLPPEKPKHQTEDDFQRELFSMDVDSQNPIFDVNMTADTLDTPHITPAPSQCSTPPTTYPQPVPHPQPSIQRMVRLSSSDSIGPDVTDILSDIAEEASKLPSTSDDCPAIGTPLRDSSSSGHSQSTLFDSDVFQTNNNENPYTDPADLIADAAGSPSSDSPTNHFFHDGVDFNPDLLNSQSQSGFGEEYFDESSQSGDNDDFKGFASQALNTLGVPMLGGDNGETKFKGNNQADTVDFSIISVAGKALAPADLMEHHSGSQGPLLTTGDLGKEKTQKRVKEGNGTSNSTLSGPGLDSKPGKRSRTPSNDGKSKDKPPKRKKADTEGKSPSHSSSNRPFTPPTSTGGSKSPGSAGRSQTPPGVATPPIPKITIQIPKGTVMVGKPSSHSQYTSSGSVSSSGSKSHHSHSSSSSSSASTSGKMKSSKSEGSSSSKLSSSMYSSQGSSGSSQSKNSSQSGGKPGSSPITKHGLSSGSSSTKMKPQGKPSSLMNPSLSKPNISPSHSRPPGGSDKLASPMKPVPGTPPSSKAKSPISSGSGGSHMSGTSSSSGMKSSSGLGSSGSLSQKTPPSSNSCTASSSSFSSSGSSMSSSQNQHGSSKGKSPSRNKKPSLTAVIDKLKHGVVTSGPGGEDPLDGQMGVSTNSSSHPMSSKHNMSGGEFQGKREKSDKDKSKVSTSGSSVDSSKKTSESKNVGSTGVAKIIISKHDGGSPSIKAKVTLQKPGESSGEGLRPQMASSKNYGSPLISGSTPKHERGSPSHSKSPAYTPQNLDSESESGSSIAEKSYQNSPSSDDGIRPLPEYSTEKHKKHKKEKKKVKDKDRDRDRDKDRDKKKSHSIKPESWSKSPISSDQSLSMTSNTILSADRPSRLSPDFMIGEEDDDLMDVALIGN
UniProt Q9Y4K0, residues 26-774: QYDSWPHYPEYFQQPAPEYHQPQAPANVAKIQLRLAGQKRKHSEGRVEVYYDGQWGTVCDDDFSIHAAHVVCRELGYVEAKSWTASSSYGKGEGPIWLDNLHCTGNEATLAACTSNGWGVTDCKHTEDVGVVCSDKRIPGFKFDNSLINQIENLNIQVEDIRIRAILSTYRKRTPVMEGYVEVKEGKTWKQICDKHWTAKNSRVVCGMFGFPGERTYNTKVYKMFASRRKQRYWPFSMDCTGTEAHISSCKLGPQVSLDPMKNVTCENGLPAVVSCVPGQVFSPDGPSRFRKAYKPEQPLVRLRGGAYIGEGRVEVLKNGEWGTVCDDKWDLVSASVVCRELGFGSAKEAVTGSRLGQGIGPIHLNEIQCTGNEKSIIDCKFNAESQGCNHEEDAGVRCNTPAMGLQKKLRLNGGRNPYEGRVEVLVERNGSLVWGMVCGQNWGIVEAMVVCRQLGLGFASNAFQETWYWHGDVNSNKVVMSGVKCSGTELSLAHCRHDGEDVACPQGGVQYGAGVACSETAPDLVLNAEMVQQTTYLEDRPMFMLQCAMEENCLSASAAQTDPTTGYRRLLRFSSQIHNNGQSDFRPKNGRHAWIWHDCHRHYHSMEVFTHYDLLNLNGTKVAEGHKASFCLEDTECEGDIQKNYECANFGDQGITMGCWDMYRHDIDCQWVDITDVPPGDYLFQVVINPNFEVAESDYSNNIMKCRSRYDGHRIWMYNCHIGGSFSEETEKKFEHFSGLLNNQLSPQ

[3] = biological target: Lin9 (MuvB subunit), endogenous (human (endogenous in MDA-MB-231)) (UniProt Q5TKA1)
[4] = biological target: MED1, endogenous (human (endogenous in MDA-MB-231)) (UniProt Q15648)

Measured: binding

Lysyl Oxidase Like 2 (LOXL2), endogenous (from UniProt Q9Y4K0 26-774)
binds: all assays above

MED1, endogenous (from UniProt Q15648 1-1581)
binds: [1] | [3]

— paper doi:10.1101/2022.05.27.493725
